# Assay results from PubChem BioAssay AID493014 (National Center for Advancing Translational Sciences (NCATS), 2011).
# The whole screen tested about 340,000 compounds, of which about 170 (0.05%) were called active. The inconclusive results got no clear call from the source; some entries with a clear call stand among them for comparison. Calls come from the whole dose curve; as a rule, active = well fitted inhibition curve with a large enough effect in the signal ratio, with a control signal flat (not every such curve was filed as active); inconclusive = small, poorly fitted or top-dose-only effect, or effect the other way, or a change in a side signal; inactive = flat fitted curve, though single readings scatter; the % refers to the signal ratio. Potencies of inconclusive entries are doubtful fits and often do not repeat.
# Experiment: qHTS Assay to Find Inhibitors of Chronic Active B-Cell Receptor Signaling;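 for activity change, negative = inhibition: plate controls were basal doxycycline-induced cells for no effect and cells given 10 µM MG132 for full effect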
# Details: ABC-DLBCL IkBa-CBG/CBR reporter, luminescence ratio (green luciferase fused to IkBa over red control in TMD8 lymphoma cells), 4 h; activity change, negative = inhibition: at 46.1 µM (top of the series)
# Procedure, shortened: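 Compounds up to 46 uM were incubated four hours with TMD8 cells whose green CBG68 luciferase is fused to IkappaBalpha; red CBR luminescence normalised the signal, and concentration-effect curves were fitted to fusion, red and ratio data.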
# Potency is the fitted concentration of half-maximal effect.
Structure (SMILES),"activity change, negative = inhibition",Potency
O=C(c1ccc(N2CCN(C(=O)c3ccccc3)CC2)cc1)c1cccc(F)c1,inconclusive: 10.3%,–
CCc1nnc(NC(=O)c2ccc(NC(=O)C(C)C)cc2)s1,inactive: 5.62%,–
Cc1ccc(/C=C/C(=O)NCCc2ccccc2)o1,–,"inconclusive: 35.5 µM [falling, single point]"
CCc1nc2c(c(=O)[nH]1)C1(CCCC1)Cc1ccccc1-2,inactive: -12.5%,–
CCCCCCCNC(=O)C1(CC2CC(c3ccc(Cl)cc3)=NO2)CCN(C(=O)CCCCCBr)CC1 (stereo unspecified),inconclusive: 14.7%,–
COc1cc2[nH]c(=O)n(CCCCCC(=O)NCCc3c[nH]c4ccccc34)c(=O)c2cc1OC,–,"inconclusive: 25.9 µM [falling, single point]"
Cc1cc2oc(=O)sc2cc1NS(=O)(=O)c1cccc2cccnc12,–,"inconclusive: 17.8 µM [falling, partial curve, poor fit]"
Cc1cc(OCCCC(=O)N2CCCCC2)cc(C)c1Cl,inconclusive: 8.68%,–
C/C(=N\NC(=O)c1cccc(Cl)c1)c1cccc(NC(=O)C(C)C)c1,inconclusive: 0.619%,–
C(=N\Nc1nc(N2CCCCCC2)nc(N2CCCCCC2)n1)/c1ccccc1,inconclusive: 15.8%,–
COc1cc(/C=C2\Oc3cc(O)ccc3C2=O)ccc1O,–,"inconclusive: 7.94 µM [rising, partial curve, poor fit]"
C[C@H](CO)N1C[C@H](C)[C@@H](CN(C)C(=O)Nc2ccc(C(F)(F)F)cc2)Oc2ccc(NS(=O)(=O)c3cccs3)cc2C1=O,inactive: -3.04%,–
COc1ccc(N2CCN(C(=O)CN(C)S(=O)(=O)c3cc(C)ccc3OC)CC2)cc1,inconclusive: 4.43%,–
Cc1cccc(NC(=O)Cn2c(O)c(N=NC(=O)c3ccncc3)c3ccccc32)c1,inconclusive: 6.14%,–
CCOC(=O)C1CCN(c2cc(=O)n(-c3ccccc3Cl)c(=O)[nH]2)CC1,inconclusive: -22.7%,–
COc1ccc(S(=O)(=O)NCCc2cn3nc(C)c(C)nc3n2)cc1,–,"inconclusive: 0.708 µM [falling, partial curve, poor fit]"
CCc1c(C)sc(NC(=O)c2ccoc2C)c1C(N)=O,inactive: -9.94%,–
Cc1ccccc1N=Nc1c(C)[nH]n(-c2ccccc2)c1=O,inactive: -3.13%,–
Cc1cccc(NC(=O)Nc2ccccc2)n1,inconclusive: -1.81%,–
COc1ccc(NC(=O)c2nc[nH]c2C(=O)Nc2ccccc2C)cc1,inactive: -7.37%,–
Cc1sc2nc(-c3cccs3)oc(=O)c2c1C,–,"inconclusive: 22.4 µM [falling, single point]"

Structure (SMILES),"activity change, negative = inhibition",Potency
CC(=O)Nc1cccc(/C(C)=N/NC(=O)c2cccs2)c1,–,"inconclusive: 29.1 µM [falling, single point]"
CCCN(C(=O)CSc1n[nH]c(-c2ccc(OC)cc2)n1)c1c(N)n(Cc2ccccc2)c(=O)[nH]c1=O,inconclusive: 2.44%,–
COC(=O)Cc1[nH]n(-c2ccccc2)c(=O)c1C=Nc1ccc(C)cc1,inconclusive: 7.74%,–
O=C1/C(=C/c2cccc(Cl)c2)SC(=S)N1CCC(=O)N1CCCCC1CCO (stereo unspecified),–,"inconclusive: 22.4 µM [falling, single point]"
Cc1ccc(-c2csc3ncnc(SCc4ccc(C(=O)O)cc4)c23)cc1,inconclusive: -9.25%,–
Cc1cc(N2CC(C(=O)NCc3cccs3)CC2=O)ccc1C(C)C (stereo unspecified),inconclusive: 7.04%,–
CC(=O)CSc1nc(C(F)(F)F)cc(=O)n1-c1ccccc1,–,"inconclusive: 32.6 µM [rising, single point]"
COc1ccc2nc(N3C(=O)C(O)=C(C(=O)c4ccco4)C3c3ccccc3OC)sc2c1 (stereo unspecified),inconclusive: -13.2%,–
Cc1ccccc1Cn1c(O)c(N=NC(=S)Nc2ccccc2F)c2ccccc21,–,"inconclusive: 12.6 µM [falling, single point]"
COc1ccccc1-n1c(=O)c(C#N)c(-c2ccc([N+](=O)[O-])cc2)c2cc(C(=O)c3cc(F)ccc3O)cnc21,inconclusive: -7.5%,–
CCCc1cc(=O)oc2cc(Oc3ncccn3)ccc12,inconclusive: 5.02%,–
COc1ccc(CN(C(=O)c2ccco2)c2ccc(C)cc2)cc1OC,inconclusive: 0.458%,–
CCOc1ccccc1OCCCC(=O)N(CC)CC(=O)Nc1c(F)cccc1F,inactive: -9.27%,–
COc1ccc(S(=O)(=O)N2CCCCC2)cc1NS(=O)(=O)c1ccccc1,inconclusive: 3.55%,–
Clc1ccc2nc(-c3ccc(Br)s3)cn2c1,–,"inconclusive: 29.1 µM [falling, single point]"
CCOc1ccc(N(CC(=O)Nc2cccc(Br)c2)S(C)(=O)=O)cc1,inconclusive: -24.6%,–
C=CCc1c(C)nc2cc(-c3ccc(C)cc3)[nH]n2c1=O,inconclusive: -23.1%,–
O=C(NCc1ccc2c(c1)OCO2)c1ccc(COc2cccc(Cl)c2)o1,inconclusive: -20.2%,–
Cc1ccccc1-n1nc(C(=O)O)cc1-c1ccccc1,inconclusive: 13.1%,–
O=C(OCc1cccc([N+](=O)[O-])c1)c1ccc[nH]c1=O,inactive: 0.947%,–

# Entries of single compounds, quoted from the list. Order of values: activity change, negative = inhibition	Potency
# `O=C(NCc1ccc2c(c1)OCO2)c1ccc(COc2cccc(Cl)c2)o1` in the list: inconclusive: -20.2%	–
# `O=C1/C(=C/c2cccc(Cl)c2)SC(=S)N1CCC(=O)N1CCCCC1CCO` (stereo unspecified) in the list: –	inconclusive: 22.4 µM [falling, single point]
# `Cc1cccc(NC(=O)Cn2c(O)c(N=NC(=O)c3ccncc3)c3ccccc32)c1` in the list: inconclusive: 6.14%	–
